Source: patent publication US20220202899A1, “COMPOSITION FOR PREVENTION OR TREATMENT OF HAIR LOSS INCLUDING HAPLN1” (HAPLNSCIENCE INC., priority 2019, published 2022)
At least one compound was matched to its structure with a doubt left.

Test system: human dermal papilla cells
Test: Dermal papilla cell proliferating effect, CCK-8 (Example 13)
Format: cell-based
Conditions: proteins 25 ng/ml, minoxidil 10 μM; TGF-β2 (2 ng/ml) present or absent
Protocol: Human dermal papilla cells were cultured in a 37° C., 5% CO2 incubator using a dermal papilla cell proliferation medium (Promocell). When the cells were about 90% full, the cells were detached with a 0.05% Trypsin/EDTA solution and then centrifuged at 1000 rpm for 3 minutes to recover only the cells. The cells were dispensed into a 96-well plate at 2.0×10^3 per well, cultured for 24 hours, and HAPLN1, CX3CL1 and CDON were diluted to have a final concentration of 25 ng/ml in serum-free medium. After removing the existing culture medium, 200 μl of diluted HAPLN1, CX3CL1, and CDON were dispensed into each well and cultured for 1 hour. To reduce an experimental variation, 3 wells per group were treated (triplication). In addition, minoxidil, which is known to proliferate dermal papilla cells, was treated with 10 μM and set as a positive control.
In the same manner as described above, HAPLN1 (25 ng/ml), CX3CL1 (25 ng/ml), CDON (25 ng/ml) or minoxidil (10 μM), and human recombinant TGF-β2 were diluted to a final concentration of 2 ng/ml, and the medium of the group containing TGF-β2 was replaced by 200 μl. To reduce an experimental variation, 3 wells per group were treated (triplication). […]

## Nc1cc(N2CCCCC2)nc(N)[n+]1[O-] [minoxidil, reference compound]
  dermal papilla cell proliferation (absorbance at 450 nm): significant dermal papilla cell proliferating activity
